Out of some 300,000 compounds screened, about 3,700 (1.2%) were called active. The shares of active, inactive and inconclusive entries below differ from those in the screen. Calls come from the whole dose curve; tested in HEK293 cells. A potency beside an inconclusive call is a rough fit, not a confirmed value.
Assay: qHTS for Inhibitors of binding or entry into cells for Lassa Virus; note: nearly all actives have a fitted effect of over 50% in size
Settings: Lassa virus pseudotype entry inhibition, cell reporter; activity change, negative = inhibition: at 37.9 µM (top of the series) unless noted
% is set by controls: 0 for no effect and ±100 for the full control effect; potency is the fitted concentration of half-maximal effect.

SMILES	Potency	activity change, negative = inhibition
COC(=O)CSc1ncc(OC)c(OC)n1	inconclusive: 6.51 µM [inhibitor, partial curve, poor fit]	–
Cc1cn2c(=O)cc(COC(=O)c3ccccc3F)nc2s1	inconclusive: 10 µM [activator, single point]	–
O=C(c1cnn(-c2ccc(Cl)cc2)c1)c1ccccc1O	inconclusive: 7.94 µM [inhibitor, partial curve, poor fit]	–
COc1cc(C)ccc1OCCCOc1c(Cl)cccc1Cl	–	inactive: 3%
Cc1c(NC(=O)OC(C)C)sc(=S)n1C	–	inactive: 21.1%
Cc1oc(-c2ccc(Cl)cc2)nc1CN1CCCC(C(=O)NCCCN2CCOCC2)C1 (configuration not stated)	inconclusive: 35.5 µM [inhibitor, single point]	–
CC(C)Cn1c(C(C)C)nc([N+](=O)[O-])c1Sc1ccc(Cl)cn1	–	inactive: 3.3%
Cc1ccc(NC(=O)COC(=O)c2ccc(Cl)cc2)cc1S(=O)(=O)N(C)C	–	inactive: 0.194%
Cc1c(Cl)ccc2sc(NC(=O)CN3C(=O)c4ccccc4C3=O)nc12	inconclusive: 29.1 µM [activator, single point]	–
COc1ccccc1N1CCN(CC(O)COCCOc2ccc(Br)cc2)CC1 (configuration not stated)	inconclusive: 22.4 µM [inhibitor, single point]	–
CN(CCOc1ccc(Cl)cc1)C(=O)C1CCN(C(=O)c2ccc(F)cc2)CC1	inconclusive: 20 µM [inhibitor, single point]	–
Cc1ccc(C(=O)NCc2ccc(N3CCN(C(=O)OC(C)(C)C)CC3)cc2)cc1	–	inactive: 4.89%
COc1ccc(-c2noc(CN(C(=O)Cc3ccc(C)cc3)C(C)C)n2)cc1	inconclusive: 8.91 µM [inhibitor, partial curve]	–
COc1ccc(CCNC(=O)c2ccc(-c3ccc([N+](=O)[O-])cc3Cl)o2)cc1OC	inconclusive: 18.4 µM [inhibitor, single point]	–
CCCN(CCC)C(=O)C1CCCN(c2ncnc3onc(-c4ccc(F)cc4)c23)C1 (configuration not stated)	–	inactive: 27.4% [at 46.1 µM]
CCC(=O)c1cccc2c1N=CC1=C(CC(C)(C)CC1=O)N2	inconclusive: 1.46 µM [inhibitor, full curve, poor fit]	–
COc1cc(C(=O)NNC(=O)C2CC=CCC2C(=O)O)cc(OC)c1OC (configuration not stated)	inconclusive: 6.51 µM [inhibitor, partial curve, poor fit]	–
Cc1ccc(S(=O)(=O)CC(O)COc2ccccc2C#N)cc1 (configuration not stated)	inconclusive: 29.1 µM [activator, partial curve, poor fit]	–
CC(C)Oc1ccc(C2NC(=O)c3ccccc3O2)cc1 (configuration not stated)	inconclusive: 0.891 µM [activator, single point]	–
Cc1c(C)c2c(C)[nH]nc2oc1=O	–	inactive: 28%
CCOc1ccc(Nc2cc(C)nc3ccc(C)cc23)cc1	active: 11.2 µM	–

SMILES	Potency	activity change, negative = inhibition
COC(=O)c1cc(OC)c(OC)cc1NC(=S)N1CCN(c2ccccc2)CC1	inconclusive: 1.03 µM [inhibitor, full curve, poor fit]	–
COc1ccc(-c2cc(C(=O)Nc3sc4c(c3C(N)=O)CCC(C)C4)no2)cc1 (configuration not stated)	inconclusive: 1.26 µM [inhibitor, partial curve, poor fit]	–
Cc1cc(O)cc(O)c1C=NCc1ccco1	inconclusive: 18.4 µM [inhibitor, single point]	–
COc1ccc(C2c3c(ncn(CCN4CCOCC4)c3=N)Oc3ccc4ccccc4c32)cc1 (configuration not stated)	inconclusive: 15.8 µM [inhibitor, single point]	–
Cc1cc(O)c(C(=O)/C=C/c2ccccc2Br)c(=O)o1	inconclusive: 1.78 µM [inhibitor, partial curve, poor fit]	–
Cc1ccc(NC(=O)Cn2cc(C(=O)c3ccco3)c3ccccc32)c(C)c1	inconclusive: 17.8 µM [inhibitor, partial curve, poor fit]	–
Cc1ncc(CN2CCCC(C(=O)Nc3ccc(-c4cccc(F)c4)cc3)C2)cn1 (configuration not stated)	inconclusive: 11.2 µM [inhibitor, partial curve, poor fit]	–
COc1ccc(/C=C/C(=O)Nc2ccc(Cl)cc2Cl)cc1	–	inactive: -0.157% [at 46.1 µM]
CCN(CC)CCCNC(=O)C(=O)Nc1ccc2nc3n(c(=O)c2c1)CCCCC3	–	inactive: 3.56% [at 46.1 µM]
COc1ccc(CCn2c(N)c(S(=O)(=O)c3cccs3)c3nc4ccccc4nc32)cc1OC	inconclusive: 16.4 µM [inhibitor, partial curve]	–
CCOC(=O)N1C2=NC(C(=O)OC)=C(C(=O)OC)[C@@H]3Nc4ccccc4[C@]23C[C@H]1C(=O)OC	inconclusive: 0.668 µM [activator, single point]	–
Cc1ccc(NC(=O)N2CCC(C(=O)NCc3ccccc3)CC2)cc1	inconclusive: 3.66 µM [inhibitor, full curve]	–
O=C(Nc1ccon1)c1ccc(N2CCCCC2)c([N+](=O)[O-])c1	–	inactive: 15.7%
N#CC1=C(N)C(C#N)(C#N)C(c2ccncc2)C2CN(C(=O)OCc3ccccc3)CC=C12 (configuration not stated)	inconclusive: 11.2 µM [inhibitor, partial curve, poor fit]	–
Cc1cccc(Nc2nc(N)nc(CCl)n2)c1C	inconclusive: 11.2 µM [inhibitor, partial curve, poor fit]	–
O=c1[nH]c2cc3c(cc2cc1C(c1nnnn1Cc1ccccc1)N1CCCCCC1)OCCO3 (configuration not stated)	inconclusive: 29.1 µM [inhibitor, single point]	–
C=C(C)Cn1c(SCC(=O)N/N=C/c2cccc(O)c2)nc2ccccc2c1=O	inconclusive: 35.5 µM [inhibitor, single point]	–
COCC(=O)n1nc(-c2ccccc2)nc1NCc1ccccc1	inconclusive: 6.31 µM [activator, full curve, poor fit]	–
Cc1ccc(S(=O)(=O)N2CCN(C(=O)c3cccs3)CC2)cc1C	inconclusive: 35.5 µM [inhibitor, partial curve, poor fit]	–
COc1ccc(N=C2SCC(c3ccc([N+](=O)[O-])cc3)=NN2CCO)cc1	inconclusive: 3.16 µM [inhibitor, partial curve]	–
COc1ccc(-c2cc3c(=O)n(CC(=O)Nc4cc(C)ccc4C)ccn3n2)cc1	inconclusive: 35.5 µM [activator, single point]	–

A second format for some results above:
Cc1cccc(Nc2nc(N)nc(CCl)n2)c1C
  Potency: inconclusive: 11.2 µM [inhibitor, partial curve, poor fit]
O=c1[nH]c2cc3c(cc2cc1C(c1nnnn1Cc1ccccc1)N1CCCCCC1)OCCO3 (configuration not stated)
  Potency: inconclusive: 29.1 µM [inhibitor, single point]
